From article PMC9408963 (International Journal of Molecular Sciences, 2022)
Where a name gives a salt, the structure may show the parent alone.

System: XooFtsZ
Type: binding, Xanthomonas oryzae pv. oryzae
Settings: 10 μM XooFtsZ, 25 °C, pH 7.4

Compound	Binding parameter n
CCCCC(CC)C(=O)Oc1c(OC)cc(C2c3cc4c(cc3C(O)C3COC(=O)C23)OCO4)cc1OC (stereo not drawn) [B2]	0.92
COc1cc([C@@H]2c3cc4c(cc3C[C@H]3COC(=O)[C@@H]32)OCO4)cc(OC)c1OC [Deoxypodophyllotoxin]	0.48
COc1cc([C@@H]2c3cc4c(cc3[C@@H](O[C@@H]3O[C@@H]5CO[C@@H](c6cccs6)O[C@H]5[C@H](O)[C@H]3O)[C@H]3COC(=O)[C@H]23)OCO4)cc(OC)c1O [Teniposide]	0.61
COc1ccc2cc3[n+](cc2c1OC)CCc1cc2c(cc1-3)OCO2 [Berberine, Berberine hydrochloride]	0.81
COc1cc([C@@H]2c3cc4c(cc3[C@@H](O[C@@H]3O[C@@H]5CO[C@@H](C)O[C@H]5[C@H](O)[C@H]3O)[C@H]3COC(=O)[C@H]23)OCO4)cc(OC)c1O [Etoposide]	0.82

Same assay, conditions: pH 7.4

Compound	Binding parameter n
COc1cc(C2c3cc4c(cc3C(O)C3COC(=O)C23)OCO4)cc(OC)c1O (stereo not drawn) [DMEOP, 4′-demethylpodophyllotoxin]	0.79
COc1cc([C@@H]2c3cc4c(cc3[C@H](O)[C@H]3COC(=O)[C@H]23)OCO4)cc(OC)c1OC [Podophyllotoxin]	0.54
COc1cc([C@@H]2c3cc4c(cc3[C@H](O)[C@H]3COC(=O)[C@@H]23)OCO4)cc(OC)c1OC [Picropodophyllotoxin]	0.63
COc1cc([C@@H]2c3cc4c(cc3[C@@H](O)[C@H]3COC(=O)[C@H]23)OCO4)cc(OC)c1O [DMEP, 4′-demethylepipodophyllotoxin]	0.92
